From paper PMC10546721
Results are given in words; binding and its absence hold for the method and conditions named. In cells and extracts the contact can be indirect. These calls come from enrichment with a bait or labelling near it, and not all partners need be listed. Sequences can lack the tags named with a protein.

By UniProt entry, the sequences of proteins in these tests, tags left out. Residues count along the entry.
UniProt O00206, residues 24-839: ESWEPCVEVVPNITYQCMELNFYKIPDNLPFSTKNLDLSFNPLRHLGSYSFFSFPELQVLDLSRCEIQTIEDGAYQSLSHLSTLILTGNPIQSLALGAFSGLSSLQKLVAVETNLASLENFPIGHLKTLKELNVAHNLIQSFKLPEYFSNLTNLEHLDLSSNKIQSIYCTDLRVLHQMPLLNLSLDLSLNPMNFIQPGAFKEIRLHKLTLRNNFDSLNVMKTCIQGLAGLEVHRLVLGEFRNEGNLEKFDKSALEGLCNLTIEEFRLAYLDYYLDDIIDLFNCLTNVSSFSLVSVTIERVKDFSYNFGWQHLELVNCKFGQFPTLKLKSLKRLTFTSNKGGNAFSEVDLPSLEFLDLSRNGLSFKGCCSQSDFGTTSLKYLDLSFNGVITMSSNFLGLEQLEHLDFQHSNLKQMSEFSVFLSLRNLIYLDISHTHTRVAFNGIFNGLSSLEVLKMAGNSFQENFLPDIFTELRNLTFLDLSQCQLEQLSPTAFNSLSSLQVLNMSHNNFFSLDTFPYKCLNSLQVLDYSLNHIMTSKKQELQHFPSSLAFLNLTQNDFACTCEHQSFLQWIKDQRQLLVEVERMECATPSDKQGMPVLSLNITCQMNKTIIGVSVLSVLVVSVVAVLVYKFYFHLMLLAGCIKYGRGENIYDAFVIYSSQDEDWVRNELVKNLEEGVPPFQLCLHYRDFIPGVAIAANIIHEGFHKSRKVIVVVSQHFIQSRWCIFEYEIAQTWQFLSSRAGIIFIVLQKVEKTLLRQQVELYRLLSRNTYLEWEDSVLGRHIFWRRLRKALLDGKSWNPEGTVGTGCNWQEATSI

Biological target: T1, lipopolysaccharide binding protein (LBP) fused with 3X-FLAG (human) (UniProt P18428)
T1 sequence: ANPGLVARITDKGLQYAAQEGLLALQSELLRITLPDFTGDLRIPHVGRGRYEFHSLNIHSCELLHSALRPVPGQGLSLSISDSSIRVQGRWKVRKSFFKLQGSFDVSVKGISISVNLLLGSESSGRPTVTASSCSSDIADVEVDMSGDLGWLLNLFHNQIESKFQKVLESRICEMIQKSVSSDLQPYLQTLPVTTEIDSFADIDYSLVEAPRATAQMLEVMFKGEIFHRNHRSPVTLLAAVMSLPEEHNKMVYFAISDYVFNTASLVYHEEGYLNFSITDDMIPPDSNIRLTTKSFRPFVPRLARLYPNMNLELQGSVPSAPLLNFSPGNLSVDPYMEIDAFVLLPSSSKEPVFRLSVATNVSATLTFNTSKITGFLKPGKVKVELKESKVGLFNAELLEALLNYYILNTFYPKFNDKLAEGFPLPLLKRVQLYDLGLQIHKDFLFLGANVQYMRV
Assay: affinity purification with mass spectrometry; anti-FLAG M2 Affinity Gel immunoprecipitation of LBP-3X-FLAG in PMA-treated THP-1 cells; eluate on Bolt 10% Bis-Tris gel, silver stain, mass spectrometry

binding: binds
Substance: TLR4 (endogenous in PMA-treated THP-1 cells) (from UniProt O00206 24-839) (receptor)
